Assay results as given in patent US9598395B2, “Premature-termination-codons readthrough compounds” (The Regents of the University of California, priority 2012, dated 2017).
Some of these results come from one statement about several compounds together. At least one structure is not confirmed: it was looked up by name or label, or the drawing left a doubt.

Test system: AT242LA cells (TGA and TAG nonsense mutations)
Test: Colony survival assay (CSA, Assay D)
Type: cell-based, human
Details: at 30 and 50 μM; 4 days; untreated A-T 9%
Method: Since a hallmark of A-T is the hypersensitivity of A-T cells to ionizing radiation, we further assessed whether these RTCs can abrogate A-T cells radio-sensitivity (Assay D, additional details below). AT242LA cells with heterozygous TGA and TAG mutations were treated with each compound for 4 days and followed by colony survival assay (CSA). As shown FIG. 4, both wildtype cells and untreated A-T cells fell into the expected survival fraction (SF) range respectively: a “normal” range of >36% SF and a “radiosensitive” range of <21% SF, which was previously established in our laboratory and is used for clinical A-T diagnosis (Sun et al, 2002). Both GJ071 and GJ072 (at 30 and 50 μM) abrogated AT242LA cellular radio-sensitivity, from “radiosensitive” range (9%) to “intermediate” range (21-36%). All together, the data from multiple A-T cells further confirmed the readthrough activity of GJ071 and GJ072 in ATM gene for three PTCs.
CSA was performed as described before (Sun et al., 2002). A-T cells were treated and then plated in duplicate in 96-well plates at 100, and 200 cells per well, respectively. One of the duplicate plates was exposed to 1.0 Gy radiation, whereas the other one was left un-irradiated. […] The presence of a colony of 32 cells (i.e., 5 cell divisions) was scored as a positive well, and survival fractions (% SF) were calculated as described (Huo et al., 1994).

COc1cccc(-n2c(SCC(=O)Nc3ccc(F)cc3)nnc2-c2ccccn2)c1 [GJ072]
survival fraction (SF): 21-36%
